Results are given in words; binding and its absence hold for the method and conditions named. Some results given as binding are weak or reduced against the parent protein; the word gives no strength.
Legend:
[1] = target: human PYY (Phoenix) (human); assay: indirect ELISA, peptide coated on the plate (20 µg/mL), MAb 5E12-B7 at 1 µg/mL, O.D. 450 nm
[2] = target: T1, 1p32-…; assay: as above
T1 sequence (peptide, C-terminal amide (-NH2)): YINLITRQRY

[3] = target: NPY (mouse NPY, Phoenix) (mouse); assay: as above
[4] = target: human PYY (Phoenix) (human); assay: BLI (Octet RED96), biotinylated MAb on SA sensors, peptide in solution
[5] = target: NPY (mouse NPY, Phoenix) (mouse); assay: as above
[6] = target: T2, Peptide 2p18 (mPP with last 4 NPY residues); assay: SPR (Biacore), FIG. 10
T2 sequence (peptide, C-terminal amide (-NH2)): YETQLRRYINTLTRQRY

[7] = target: NPY (mouse NPY, Phoenix) (mouse); assay: Biacore 2000 (SPR), biotinylated MAb 5E12-B7 on a streptavidin chip, peptide injected; concentration of the peptide not printed on the sheet; the sheet says 'Human NPY', the NPY peptide of the Biacore work is the Phoenix peptide of Table 3 (human and mouse NPY are identical)
[8] = target: human PYY (Phoenix) (human); assay: SPR (Biacore 2000), biotinylated MAb on SA chip, peptide in solution
[9] = target: NPY (mouse NPY, Phoenix) (mouse); assay: as above
[10] = target: T3, Peptide 2p7 (Poly Ala with shrinking NPY C term); assay: indirect ELISA, peptide coated at 20 ug/mL, MAb at 1 ug/mL
T3 sequence (peptide, C-terminal amide (-NH2)): AAAAAAAAINLITRQRY

[11] = target: Peptide 1p15 (NPY last 17 residues Alanine Scan); assay: as above
[12] = target: Peptide 1p10 (NPY last 17 residues Alanine Scan); assay: as above
[13] = target: Peptide 1p14 (NPY last 17 residues Alanine Scan); assay: as above
[14] = target: Peptide 1p4 (NPY last 17 residues Alanine Scan); assay: as above
[15] = target: T4, Peptide 2p4 (Poly Ala with shrinking NPY C term); assay: as above
T4 sequence (peptide, C-terminal amide (-NH2)): AAAAARHYINLITRQRY

[16] = target: T5, Peptide 2p5 (Poly Ala with shrinking NPY C term); assay: as above
T5 sequence (peptide, C-terminal amide (-NH2)): AAAAAAHYINLITRQRY

[17] = target: Peptide 1p9 (NPY last 17 residues Alanine Scan); assay: as above
[18] = target: T6, Peptide 2p6 (Poly Ala with shrinking NPY C term); assay: as above
T6 sequence (peptide, C-terminal amide (-NH2)): AAAAAAAYINLITRQRY

[19] = target: T7, Peptide 2p3 (Poly Ala with shrinking NPY C term); assay: as above
T7 sequence (peptide, C-terminal amide (-NH2)): AAAALRHYINLITRQRY

[20] = target: T8, Peptide 2p20 (Poly Glycine with last 3 NPY residues); assay: as above
T8 sequence (peptide, C-terminal amide (-NH2)): GGGGGGGGGGGGGGQRY

[21] = target: T9, Peptide 2p9 (Poly Ala with shrinking NPY C term); assay: as above
T9 sequence (peptide, C-terminal amide (-NH2)): AAAAAAAAAALITRQRY

[22] = target: Peptide 1p12 (NPY last 17 residues Alanine Scan); assay: as above
[23] = target: T10, Peptide 2p8 (Poly Ala with shrinking NPY C term); assay: as above
T10 sequence (peptide, C-terminal amide (-NH2)): AAAAAAAAANLITRQRY

[24] = target: Peptide 1p1 (NPY last 17 residues Alanine Scan) (mouse); assay: as above
[25] = target: T11, Peptide 2p12 (Poly Ala with shrinking NPY C term); assay: as above
T11 sequence (peptide, C-terminal amide (-NH2)): AAAAAAAAAAAATRQRY

[26] = target: T2, Peptide 2p18 (mPP with last 4 NPY residues); assay: as above
[27] = target: Peptide 1p11 (NPY last 17 residues Alanine Scan); assay: as above
[28] = target: Peptide 1p8 (NPY last 17 residues Alanine Scan); assay: as above
[29] = target: Peptide 1p3 (NPY last 17 residues Alanine Scan); assay: as above
[30] = target: T12, Peptide 2p10 (Poly Ala with shrinking NPY C term); assay: as above
T12 sequence (peptide, C-terminal amide (-NH2)): AAAAAAAAAAAITRQRY

[31] = target: T13, Peptide 2p14 (Poly Ala with shrinking NPY C term); assay: as above
T13 sequence (peptide, C-terminal amide (-NH2)): AAAAAAAAAAAAAAQRY

[32] = target: Peptide 1p13 (NPY last 17 residues Alanine Scan); assay: as above
[33] = target: Peptide 1p2 (NPY last 17 residues Alanine Scan); assay: as above
[34] = target: Peptide 1p7 (NPY last 17 residues Alanine Scan); assay: as above
[35] = target: T14, Peptide 2p2 (Poly Ala with shrinking NPY C term); assay: as above
T14 sequence (peptide, C-terminal amide (-NH2)): AASALRHYINLITRQRY

[36] = target: T15, Peptide 2p1 (Poly Ala with shrinking NPY C term); assay: as above
T15 sequence (peptide, C-terminal amide (-NH2)): AYSALRHYINLITRQRY

[37] = target: T16, Peptide 2p11 (Poly Ala with shrinking NPY C term); assay: as above
T16 sequence (peptide, C-terminal amide (-NH2)): AAAAAAAAAAAATRQRY

[38] = target: T17, Peptide 2p13 (Poly Ala with shrinking NPY C term); assay: as above
T17 sequence (peptide, C-terminal amide (-NH2)): AAAAAAAAAAAAARQRY

[39] = target: NPY (mouse NPY, Phoenix) (mouse); assay: as above
[40] = target: Peptide 1p6 (NPY last 17 residues Alanine Scan); assay: as above
[41] = target: Peptide 1p5 (NPY last 17 residues Alanine Scan); assay: as above
[42] = target: T18, Peptide 3p13 (NPY C terminus with similar a.a. substitutions); assay: SPR (Biacore), FIGS. 11A and 11B
T18 sequence (peptide, C-terminal amide (-NH2)): AAAAAAAAAAAAAARRY

[43] = target: T19, Peptide 3p14 (NPY C terminus with similar a.a. substitutions); assay: SPR (Biacore), FIGS. 11A and 11B
T19 sequence (peptide, C-terminal amide (-NH2)): AAAAAAAAAAAAAAKRY

[44] = target: human PYY (Phoenix) (human); assay: Biacore 2000 (SPR), biotinylated MAb 5E12-B7 on a streptavidin chip, peptide injected; concentration of the peptide not printed on the sheet
[45] = target: T15, Peptide 2p1 (Poly Ala with shrinking NPY C term); assay: as above
[46] = target: NPY (mouse NPY, Phoenix) (mouse); assay: as above

Measured: binding

B1: MAb 5E12-B7 (antibody, V domains shown)
VH: QVQLQHPGTEVVKPGASVKLSCKASGYTFTNYWMHWVKQRPGQGLEWIGNIDPSNGGTNYNEKFKSKATLTVDKSSSTAYMQLSSLTSEDSAVYYCASFAYWGQGTLVTVSA
VL: DIQMTQSPASLSASVGETVTITCRASGNIHNYLAWYQQKQGKSPQLLVYNAKTLADGVPSRFSGSGSGTQYSLKISSLRPEDFGSYYCQHFWSPPFTFGSGTKLEIK
binds: all assays above

From patent publication US20150307599A1
